This passage reports binding results from paper PMC7527347.

By UniProt entry, the sequences of proteins in these tests, tags left out. Where a name states a change or a piece, a line headed by the entry shows the natural chain unless it says otherwise. Residues count along the entry.
UniProt Q04206: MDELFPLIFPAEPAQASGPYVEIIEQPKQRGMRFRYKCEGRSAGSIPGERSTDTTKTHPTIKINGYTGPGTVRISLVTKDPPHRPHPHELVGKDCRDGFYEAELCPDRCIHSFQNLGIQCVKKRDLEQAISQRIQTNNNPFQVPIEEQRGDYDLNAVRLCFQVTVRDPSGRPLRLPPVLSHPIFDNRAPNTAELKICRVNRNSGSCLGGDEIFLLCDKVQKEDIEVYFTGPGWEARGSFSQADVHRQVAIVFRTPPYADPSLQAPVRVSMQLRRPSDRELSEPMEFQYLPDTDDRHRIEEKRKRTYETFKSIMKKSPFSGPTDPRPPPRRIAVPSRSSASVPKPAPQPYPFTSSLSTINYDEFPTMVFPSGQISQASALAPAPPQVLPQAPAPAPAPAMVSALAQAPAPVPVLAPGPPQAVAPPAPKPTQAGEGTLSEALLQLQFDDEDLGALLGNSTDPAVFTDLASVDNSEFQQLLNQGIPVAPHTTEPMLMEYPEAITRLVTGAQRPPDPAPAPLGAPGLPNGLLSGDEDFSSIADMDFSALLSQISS
UniProt P19838, residues 1-433: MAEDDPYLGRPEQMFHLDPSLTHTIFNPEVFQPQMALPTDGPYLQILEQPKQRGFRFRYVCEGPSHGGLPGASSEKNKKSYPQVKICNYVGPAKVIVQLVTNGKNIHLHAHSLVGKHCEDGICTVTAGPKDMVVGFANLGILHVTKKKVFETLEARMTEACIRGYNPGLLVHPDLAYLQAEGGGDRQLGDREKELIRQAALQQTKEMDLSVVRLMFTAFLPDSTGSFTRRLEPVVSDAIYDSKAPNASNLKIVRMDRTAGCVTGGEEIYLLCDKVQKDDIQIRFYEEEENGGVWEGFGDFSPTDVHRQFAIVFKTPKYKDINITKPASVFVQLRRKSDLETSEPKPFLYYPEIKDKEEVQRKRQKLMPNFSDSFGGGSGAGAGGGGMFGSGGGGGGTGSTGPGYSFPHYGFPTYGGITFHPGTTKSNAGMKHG
UniProt G5EFS1: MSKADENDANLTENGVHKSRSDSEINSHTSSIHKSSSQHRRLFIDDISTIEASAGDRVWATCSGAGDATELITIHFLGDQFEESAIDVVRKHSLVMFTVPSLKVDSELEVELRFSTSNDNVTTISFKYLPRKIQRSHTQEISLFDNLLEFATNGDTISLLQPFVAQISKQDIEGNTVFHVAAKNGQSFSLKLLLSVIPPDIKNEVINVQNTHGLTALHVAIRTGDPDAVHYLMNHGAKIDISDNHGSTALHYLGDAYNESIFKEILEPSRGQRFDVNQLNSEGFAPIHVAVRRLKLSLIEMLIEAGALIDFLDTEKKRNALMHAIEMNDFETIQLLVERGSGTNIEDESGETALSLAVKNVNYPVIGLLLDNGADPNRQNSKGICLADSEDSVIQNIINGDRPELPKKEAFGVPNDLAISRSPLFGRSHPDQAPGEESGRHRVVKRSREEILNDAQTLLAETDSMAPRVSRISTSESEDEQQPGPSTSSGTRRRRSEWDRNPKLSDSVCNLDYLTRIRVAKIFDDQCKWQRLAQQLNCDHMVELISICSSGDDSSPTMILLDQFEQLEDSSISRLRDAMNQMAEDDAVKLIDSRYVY

For assay [1], the target named is NF-κB p65/RelA (human (endogenous in HEK-293T)) (UniProt Q04206). The assay is described as follows: co-IP; extracts from HEK-293T cells transfected with the HA-tagged proteins; association with p65/RelA and p50 read by Western blot. For orientation: A western blot detects proteins with antibodies after separation by electrophoresis.
Assay [2] concerns the target NF-κB p50 (human (endogenous in HEK-293T)) (UniProt P19838). The assay is described as above.

No constants are given. Whether binding was seen depends on the method and setting. In cells and extracts the contact can be indirect.

Consider HA-tagged IKB-1 (from UniProt G5EFS1), for which the binding result in assay [1] and in assay [2] was “no binding” throughout.
